Laboratory results taken from the supplement of paper PMC10849652.
This is one part of the list.

Sequences of proteins named here, by UniProt entry; tags and fusion partners are left off. A change or cut given only in a name is not applied to a line headed by its entry.
UniProt Q8NC51: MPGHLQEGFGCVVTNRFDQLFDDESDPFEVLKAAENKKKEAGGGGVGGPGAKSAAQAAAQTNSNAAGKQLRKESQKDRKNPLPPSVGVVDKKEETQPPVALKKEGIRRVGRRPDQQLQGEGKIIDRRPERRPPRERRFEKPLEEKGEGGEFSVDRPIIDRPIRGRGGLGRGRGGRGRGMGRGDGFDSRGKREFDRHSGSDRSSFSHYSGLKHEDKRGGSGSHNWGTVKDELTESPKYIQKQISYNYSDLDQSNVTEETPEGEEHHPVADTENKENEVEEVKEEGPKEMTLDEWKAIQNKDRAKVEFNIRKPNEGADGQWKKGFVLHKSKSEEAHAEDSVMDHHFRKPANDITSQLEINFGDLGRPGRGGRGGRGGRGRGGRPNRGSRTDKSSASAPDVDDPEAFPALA
UniProt P41440: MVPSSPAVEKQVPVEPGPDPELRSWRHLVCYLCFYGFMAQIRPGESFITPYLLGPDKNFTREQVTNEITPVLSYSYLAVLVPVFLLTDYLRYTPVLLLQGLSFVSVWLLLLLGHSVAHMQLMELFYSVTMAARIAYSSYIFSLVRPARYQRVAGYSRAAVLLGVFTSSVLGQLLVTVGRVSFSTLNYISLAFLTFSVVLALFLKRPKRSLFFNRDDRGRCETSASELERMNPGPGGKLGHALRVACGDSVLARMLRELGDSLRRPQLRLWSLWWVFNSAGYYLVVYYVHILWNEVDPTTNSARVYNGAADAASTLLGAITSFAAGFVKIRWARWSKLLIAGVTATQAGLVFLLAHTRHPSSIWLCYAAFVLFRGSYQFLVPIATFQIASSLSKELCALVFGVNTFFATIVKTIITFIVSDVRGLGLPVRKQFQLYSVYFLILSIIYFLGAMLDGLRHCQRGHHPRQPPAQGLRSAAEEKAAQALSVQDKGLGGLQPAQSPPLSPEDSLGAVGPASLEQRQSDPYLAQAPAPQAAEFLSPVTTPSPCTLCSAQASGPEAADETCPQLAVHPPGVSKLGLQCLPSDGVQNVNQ
UniProt Q86XK3: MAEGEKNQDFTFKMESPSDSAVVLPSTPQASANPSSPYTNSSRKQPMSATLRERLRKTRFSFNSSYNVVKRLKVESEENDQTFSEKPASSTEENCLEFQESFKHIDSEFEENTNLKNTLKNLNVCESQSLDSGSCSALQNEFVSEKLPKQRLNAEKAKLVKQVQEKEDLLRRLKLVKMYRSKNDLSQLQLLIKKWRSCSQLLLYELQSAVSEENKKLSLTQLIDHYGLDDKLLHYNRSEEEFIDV
UniProt Q15637: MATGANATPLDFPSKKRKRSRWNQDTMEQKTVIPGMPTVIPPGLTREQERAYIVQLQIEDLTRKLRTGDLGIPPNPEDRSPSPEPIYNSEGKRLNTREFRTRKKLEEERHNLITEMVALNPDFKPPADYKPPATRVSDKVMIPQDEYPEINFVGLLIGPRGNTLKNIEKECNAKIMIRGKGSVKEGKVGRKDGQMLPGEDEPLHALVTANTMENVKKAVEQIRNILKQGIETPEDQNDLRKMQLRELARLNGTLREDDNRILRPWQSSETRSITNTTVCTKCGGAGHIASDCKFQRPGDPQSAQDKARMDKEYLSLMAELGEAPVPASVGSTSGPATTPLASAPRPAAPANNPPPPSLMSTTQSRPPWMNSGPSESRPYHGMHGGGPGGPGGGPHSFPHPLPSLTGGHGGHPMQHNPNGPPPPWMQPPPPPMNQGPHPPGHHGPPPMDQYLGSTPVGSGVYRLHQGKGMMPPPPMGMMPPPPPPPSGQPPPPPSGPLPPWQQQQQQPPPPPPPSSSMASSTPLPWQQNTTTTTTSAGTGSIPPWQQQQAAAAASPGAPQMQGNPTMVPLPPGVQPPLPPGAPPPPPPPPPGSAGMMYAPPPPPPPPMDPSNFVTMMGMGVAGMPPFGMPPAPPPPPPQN
UniProt Q8NEM2: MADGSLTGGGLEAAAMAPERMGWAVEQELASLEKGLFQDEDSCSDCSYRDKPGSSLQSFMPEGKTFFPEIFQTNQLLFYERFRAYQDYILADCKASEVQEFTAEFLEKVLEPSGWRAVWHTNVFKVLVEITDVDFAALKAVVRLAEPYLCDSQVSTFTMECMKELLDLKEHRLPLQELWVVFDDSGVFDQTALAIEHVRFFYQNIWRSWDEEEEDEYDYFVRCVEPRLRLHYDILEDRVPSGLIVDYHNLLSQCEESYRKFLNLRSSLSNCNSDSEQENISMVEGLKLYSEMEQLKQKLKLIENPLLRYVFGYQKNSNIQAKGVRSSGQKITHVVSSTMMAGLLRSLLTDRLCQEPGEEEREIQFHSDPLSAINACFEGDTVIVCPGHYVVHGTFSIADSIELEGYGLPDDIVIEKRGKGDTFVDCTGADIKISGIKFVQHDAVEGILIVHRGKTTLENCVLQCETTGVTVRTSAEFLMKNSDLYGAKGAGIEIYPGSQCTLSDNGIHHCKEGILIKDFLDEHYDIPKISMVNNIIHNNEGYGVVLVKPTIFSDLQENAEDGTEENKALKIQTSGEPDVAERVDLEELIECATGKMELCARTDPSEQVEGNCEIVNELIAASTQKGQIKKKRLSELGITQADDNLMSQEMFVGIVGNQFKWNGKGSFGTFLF
UniProt Q6PI26: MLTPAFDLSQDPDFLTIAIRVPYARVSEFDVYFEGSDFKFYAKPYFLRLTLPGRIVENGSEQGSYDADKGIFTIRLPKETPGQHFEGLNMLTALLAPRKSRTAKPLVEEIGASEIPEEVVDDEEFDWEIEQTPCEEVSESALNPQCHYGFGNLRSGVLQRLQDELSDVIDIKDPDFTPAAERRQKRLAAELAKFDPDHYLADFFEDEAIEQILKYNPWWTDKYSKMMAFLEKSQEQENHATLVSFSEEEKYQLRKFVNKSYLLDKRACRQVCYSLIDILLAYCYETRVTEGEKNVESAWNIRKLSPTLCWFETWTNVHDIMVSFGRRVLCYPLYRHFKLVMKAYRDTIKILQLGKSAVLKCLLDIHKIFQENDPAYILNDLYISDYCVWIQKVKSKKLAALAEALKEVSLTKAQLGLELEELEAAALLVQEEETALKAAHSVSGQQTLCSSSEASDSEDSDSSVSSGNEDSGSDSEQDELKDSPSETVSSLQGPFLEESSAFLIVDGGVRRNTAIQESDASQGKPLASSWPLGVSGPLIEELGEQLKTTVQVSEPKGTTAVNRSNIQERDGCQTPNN
UniProt Q9UJC5: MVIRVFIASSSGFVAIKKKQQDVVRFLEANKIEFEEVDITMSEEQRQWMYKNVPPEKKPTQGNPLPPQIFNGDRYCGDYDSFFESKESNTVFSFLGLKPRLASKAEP
UniProt P31947: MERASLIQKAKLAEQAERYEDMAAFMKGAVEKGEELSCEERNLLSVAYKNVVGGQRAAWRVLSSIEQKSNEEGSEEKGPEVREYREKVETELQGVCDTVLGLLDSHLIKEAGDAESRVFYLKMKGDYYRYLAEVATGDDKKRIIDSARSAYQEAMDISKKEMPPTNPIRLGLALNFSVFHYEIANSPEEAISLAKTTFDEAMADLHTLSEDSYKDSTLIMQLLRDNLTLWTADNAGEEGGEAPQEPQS
UniProt Q9Y2K2: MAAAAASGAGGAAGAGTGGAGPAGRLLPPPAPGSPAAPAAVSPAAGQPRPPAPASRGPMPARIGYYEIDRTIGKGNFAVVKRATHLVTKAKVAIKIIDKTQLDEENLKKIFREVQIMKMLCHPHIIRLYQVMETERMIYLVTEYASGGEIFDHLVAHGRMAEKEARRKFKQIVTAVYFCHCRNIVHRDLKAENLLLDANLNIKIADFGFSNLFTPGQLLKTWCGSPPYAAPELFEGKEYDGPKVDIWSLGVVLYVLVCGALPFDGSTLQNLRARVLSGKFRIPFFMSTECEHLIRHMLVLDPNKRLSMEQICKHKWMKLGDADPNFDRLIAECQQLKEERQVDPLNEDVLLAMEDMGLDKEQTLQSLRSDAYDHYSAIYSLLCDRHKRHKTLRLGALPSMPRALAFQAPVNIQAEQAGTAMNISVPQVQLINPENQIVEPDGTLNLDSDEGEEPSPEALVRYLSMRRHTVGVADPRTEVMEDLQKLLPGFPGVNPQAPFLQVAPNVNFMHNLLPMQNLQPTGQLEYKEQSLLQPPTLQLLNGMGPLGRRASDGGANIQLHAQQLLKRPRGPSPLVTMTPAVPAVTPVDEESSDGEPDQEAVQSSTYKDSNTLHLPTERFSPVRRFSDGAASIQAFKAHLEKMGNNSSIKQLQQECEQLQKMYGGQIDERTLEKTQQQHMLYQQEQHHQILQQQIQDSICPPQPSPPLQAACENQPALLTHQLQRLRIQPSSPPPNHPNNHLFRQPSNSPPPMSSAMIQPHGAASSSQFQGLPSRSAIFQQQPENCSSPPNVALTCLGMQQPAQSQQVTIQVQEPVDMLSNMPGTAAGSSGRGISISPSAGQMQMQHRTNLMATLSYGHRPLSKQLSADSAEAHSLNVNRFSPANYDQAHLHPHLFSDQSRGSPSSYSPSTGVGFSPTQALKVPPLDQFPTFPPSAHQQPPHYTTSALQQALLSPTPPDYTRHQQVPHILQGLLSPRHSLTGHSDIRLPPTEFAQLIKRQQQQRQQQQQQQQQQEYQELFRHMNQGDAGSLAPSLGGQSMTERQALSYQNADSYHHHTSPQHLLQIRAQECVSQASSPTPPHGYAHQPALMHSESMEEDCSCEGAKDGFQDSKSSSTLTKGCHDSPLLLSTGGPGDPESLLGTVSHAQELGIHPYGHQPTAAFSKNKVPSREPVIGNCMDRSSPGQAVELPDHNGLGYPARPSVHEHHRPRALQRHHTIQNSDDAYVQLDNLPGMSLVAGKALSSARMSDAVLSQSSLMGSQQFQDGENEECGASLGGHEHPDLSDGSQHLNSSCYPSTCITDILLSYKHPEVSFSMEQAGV
UniProt Q8IW75: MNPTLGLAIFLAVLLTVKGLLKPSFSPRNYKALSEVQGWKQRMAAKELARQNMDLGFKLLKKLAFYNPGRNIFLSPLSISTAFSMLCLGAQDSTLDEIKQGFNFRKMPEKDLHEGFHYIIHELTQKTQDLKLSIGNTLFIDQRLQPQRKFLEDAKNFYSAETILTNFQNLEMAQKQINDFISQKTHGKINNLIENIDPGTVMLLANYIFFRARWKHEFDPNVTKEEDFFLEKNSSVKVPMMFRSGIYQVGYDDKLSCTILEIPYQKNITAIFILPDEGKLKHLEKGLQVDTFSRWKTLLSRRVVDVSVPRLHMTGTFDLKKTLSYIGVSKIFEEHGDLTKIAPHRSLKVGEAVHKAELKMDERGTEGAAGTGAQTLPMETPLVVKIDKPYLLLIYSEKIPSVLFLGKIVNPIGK
UniProt Q96JX3: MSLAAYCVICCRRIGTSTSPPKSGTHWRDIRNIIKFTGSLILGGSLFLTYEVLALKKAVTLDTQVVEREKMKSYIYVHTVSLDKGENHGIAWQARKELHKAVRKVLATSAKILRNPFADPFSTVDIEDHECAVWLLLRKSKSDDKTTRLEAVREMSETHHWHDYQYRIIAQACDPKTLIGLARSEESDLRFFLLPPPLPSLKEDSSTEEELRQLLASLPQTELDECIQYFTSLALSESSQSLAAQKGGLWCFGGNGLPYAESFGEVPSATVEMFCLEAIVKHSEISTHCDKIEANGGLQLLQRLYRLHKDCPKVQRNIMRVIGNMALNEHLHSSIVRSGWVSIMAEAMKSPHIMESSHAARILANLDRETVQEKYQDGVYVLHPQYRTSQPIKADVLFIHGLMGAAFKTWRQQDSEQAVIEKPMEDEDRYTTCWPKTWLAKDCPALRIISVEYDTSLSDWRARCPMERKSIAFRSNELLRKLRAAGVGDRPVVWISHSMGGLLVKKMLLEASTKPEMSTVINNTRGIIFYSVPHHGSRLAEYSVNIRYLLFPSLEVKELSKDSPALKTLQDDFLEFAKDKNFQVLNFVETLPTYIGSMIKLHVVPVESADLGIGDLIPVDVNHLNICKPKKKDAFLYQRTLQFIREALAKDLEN
UniProt P84101: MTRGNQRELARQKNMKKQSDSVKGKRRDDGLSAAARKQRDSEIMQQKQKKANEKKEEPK
UniProt Q8N697: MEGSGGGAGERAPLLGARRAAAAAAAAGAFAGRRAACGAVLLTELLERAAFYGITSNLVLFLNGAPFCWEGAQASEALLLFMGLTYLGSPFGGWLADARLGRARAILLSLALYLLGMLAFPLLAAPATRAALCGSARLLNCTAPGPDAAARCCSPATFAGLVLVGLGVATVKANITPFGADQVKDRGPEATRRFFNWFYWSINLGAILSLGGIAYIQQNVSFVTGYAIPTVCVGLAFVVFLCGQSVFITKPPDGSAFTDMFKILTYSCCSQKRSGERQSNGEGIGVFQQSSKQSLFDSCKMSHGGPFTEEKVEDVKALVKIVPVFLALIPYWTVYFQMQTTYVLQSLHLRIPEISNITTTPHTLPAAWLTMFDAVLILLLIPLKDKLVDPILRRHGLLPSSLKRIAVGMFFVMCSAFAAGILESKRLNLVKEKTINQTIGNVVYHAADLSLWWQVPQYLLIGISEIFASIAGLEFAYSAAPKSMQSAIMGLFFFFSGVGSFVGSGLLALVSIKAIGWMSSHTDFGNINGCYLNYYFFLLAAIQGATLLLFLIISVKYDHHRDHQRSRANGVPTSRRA

How the values were obtained:
Experiment in all cases: log2 fold change, soluble protein after heating vs DMSO (PISA); higher = thermal stabilisation; K562 lysate, 10 uM; active = over 0.2 and 3.5 SD of the protein, either way, in both replicates (recomputed)
[1] = compound: Cc1cn(-c2cc(NC(=O)c3ccc(C)c(Nc4nccc(-c5cccnc5)n4)c3)cc(C(F)(F)F)c2)cn1 [nilotinib]
How it was run: (§1)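 The values are log-two fold changes in thermal stability compared with solvent controls and come from duplicates. They were obtained by TMTpro 16plex LC-MS/MS, with channel sums equalised, on the supernatant after 21,000xg for 90 min. That supernatant came from crude K562 extract at 1 mg/mL protein treated with 10 μM compound for 30 min, heated for 3 min across 48°C-58°C, pooled and brought to 0.5% NP-40 at 4°C.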

[2] = compound: Cc1nc(Nc2n[nH]c3c2CN(C(=O)N[C@H](CN(C)C)c2ccccc2)C3(C)C)c2sccc2n1
How it was run: as §1

[3] = compound: Cc1nc(Nc2ncc(C(=O)Nc3c(C)cccc3Cl)s2)cc(N2CCN(CCO)CC2)n1 [dasatinib]
How it was run: as §1

[4] = compound: Cc1ncc(-c2ccnc(Nc3ccc(S(C)(=O)=O)cc3)n2)n1C(C)C
How it was run: as §1

[5] = compound: Cn1cc(-c2ccc3c(c2)CCN3C(=O)Cc2cccc(C(F)(F)F)c2)c2c(N)ncnc21
How it was run: as §1

[6] = compound: Cn1cc(CNCC2CCN(c3ncc(C(=O)NO)cn3)CC2)c2ccccc21 [quisinostat]
How it was run: as §1

[7] = compound: Cn1cncc1[C@@](N)(c1ccc(Cl)cc1)c1ccc2c(c1)c(-c1cccc(Cl)c1)cc(=O)n2C [tipifarnib]
How it was run: as §1

[8] = compound: NC(=O)Nc1cc(-c2cccc(F)c2)sc1C(=O)N[C@H]1CCCNC1
How it was run: as §1

[9] = compound: NC(=O)c1cnc(N[C@@H]2CCCC[C@@H]2N)nc1Nc1cccc(-n2nccn2)c1
How it was run: as §1

[10] = compound: NC1(c2ccc(-c3nc4ccn5c(=O)[nH]nc5c4cc3-c3ccccc3)cc2)CCC1
How it was run: as §1

Measured: log2 fold change

SIPA1 (UniProt Q96FS4)
inactive: [1] 0.018 | [2] -0.029 | [3] 0.046 | [4] 0.029 | [5] 0.001 | [6] 0.025 | [7] -0.001 | [8] 0.028 | [9] -0.015 | [10] -0.022

SERBP1 (UniProt Q8NC51)
inactive: [1] -0.031 | [2] 0.021 | [3] 0.044 | [4] -0.006 | [5] -0.025 | [6] 0.023 | [7] 0.003 | [8] -0.012 | [9] -0.03 | [10] 0.004

SESN2 (UniProt P58004)
inactive: [1] 0.019 | [2] 0.027 | [3] -0.023 | [4] 0.021 | [5] 0.028 | [6] -0.051 | [7] 0.007 | [8] 0.092 | [9] 0.034 | [10] -0.057

SINHCAF (UniProt Q9NP50)
inactive: [1] -0.016 | [2] 0 | [3] -0.161 | [4] -0.121 | [5] 0.556 | [6] -0.044 | [7] -0.089 | [8] 0.122 | [10] 0.209

SFT2D3 (UniProt Q587I9)
inactive: [1] 0.052 | [2] -0.042 | [3] 0.035 | [4] 0.056 | [5] 0.028 | [6] 0.019 | [7] 0.02 | [8] -0.173 | [9] 0.04 | [10] -0.041

SETDB1 (UniProt Q15047)
inactive: [1] 0.01 | [2] -0.011 | [3] 0.051 | [4] -0.056 | [5] 0.047 | [6] -0.014 | [7] 0.013 | [8] 0.004 | [9] 0.056 | [10] -0.013

SLC19A1 (UniProt P41440)
inactive: [1] -0.026 | [2] 0.014 | [3] 0.019 | [4] -0.032 | [5] -0.017 | [6] -0.077 | [7] -0.01 | [8] -0.015 | [9] -0.027 | [10] -0.004

SFR1 isoform 2 (UniProt Q86XK3)
inactive: [1] -0.029 | [2] 0.068 | [3] 0.055 | [4] 0.045 | [5] -0.058 | [6] -0.029 | [7] 0.072 | [8] -0.004 | [9] 0.02 | [10] -0.039

SLC19A2 (UniProt O60779)
inactive: [1] 0.131 | [2] -0.034 | [3] -0.054 | [4] -0.236 | [5] -0.083 | [7] -0.087 | [9] -0.061

SF1 isoform 6 (UniProt Q15637)
inactive: [1] 0.086 | [2] -0.012 | [3] -0.031 | [4] -0.008 | [5] -0.135 | [7] -0.033 | [9] 0.027 | [10] -0.046

SIGMAR1 (UniProt Q99720)
inactive: [1] -0.052 | [2] 0.042 | [3] 0.047 | [4] 0.001 | [5] -0.012 | [7] -0.059 | [8] 0.01 | [9] 0.016 | [10] 0.053

SHCBP1 (UniProt Q8NEM2)
inactive: [1] -0.051 | [2] -0.024 | [3] -0.071 | [4] -0.043 | [5] 0.026 | [6] -0.019 | [7] -0.035 | [8] -0.009 | [9] -0.019 | [10] -0.016

SHQ1 (UniProt Q6PI26)
inactive: [1] -0.07 | [2] -0.01 | [3] -0.339 | [4] 0.002 | [5] 0.108 | [6] -0.067 | [7] -0.104 | [8] 0.012 | [10] 0.106

Retrieved one by one from the list above, 2 records:
SHQ1 (UniProt Q6PI26)
inactive: [1] -0.07 | [2] -0.01 | [3] -0.339 | [4] 0.002 | [5] 0.108 | [6] -0.067 | [7] -0.104 | [8] 0.012 | [10] 0.106

SLC19A2 (UniProt O60779)
inactive: [1] 0.131 | [2] -0.034 | [3] -0.054 | [4] -0.236 | [5] -0.083 | [7] -0.087 | [9] -0.061

Next part

SLAIN2 (UniProt Q9P270)
inactive: [1] -0.024 | [2] 0.012 | [3] 0.001 | [4] 0.005 | [5] -0.015 | [6] -0.022 | [7] -0.011 | [8] 0.003 | [9] 0 | [10] 0.023

SH3BGRL2 (UniProt Q9UJC5)
inactive: [1] -0.001 | [2] -0.001 | [3] 0.077 | [4] -0.019 | [5] -0.033 | [6] -0.029 | [7] 0.013 | [8] 0.009 | [9] -0.04 | [10] 0.032

SF3B2 (UniProt Q13435)
inactive: [1] -0.022 | [2] -0.004 | [3] 0.004 | [4] -0.034 | [5] 0.003 | [6] -0.005 | [7] 0.003 | [8] -0.003 | [9] 0.008 | [10] 0

SKP2 (UniProt Q13309)
inactive: [1] 0.047 | [2] -0.044 | [3] -0.004 | [4] 0.003 | [5] 0.045 | [6] -0.193 | [7] -0.035 | [8] 0.295 | [9] -0.015 | [10] -0.044

SLC12A4 (UniProt Q9UP95)
inactive: [1] -0.003 | [2] -0.024 | [3] 0.024 | [4] 0.01 | [5] -0.046 | [6] 0.028 | [7] -0.056 | [8] 0.006 | [9] 0.093 | [10] 0.029

SFN (UniProt P31947)
inactive: [1] -0.036 | [2] -0.007 | [3] 0.088 | [4] -0.007 | [5] 0.008 | [6] 0.077 | [7] 0.052 | [8] -0.048 | [9] -0.023 | [10] 0.035

SLC20A1 (UniProt Q8WUM9)
inactive: [1] -0.021 | [2] -0.001 | [3] -0.023 | [4] -0.03 | [5] 0.007 | [6] -0.048 | [7] -0.007 | [8] -0.034 | [9] 0.05 | [10] -0.099

SIK3 (UniProt Q9Y2K2)
inactive: [1] 0.132 | [2] 0.201 | [3] 0.101 | [4] -0.078 | [5] -0.296 | [6] -0.046 | [7] -0.087 | [8] 0.19 | [10] -0.028

SERPINA12 (UniProt Q8IW75)
inactive: [1] 0.145 | [2] 0.225 | [3] -0.39 | [4] -0.234 | [5] -0.057 | [6] 0.152 | [7] -0.081 | [8] 0.017 | [9] 0.224 | [10] 0.169

SFPQ (UniProt P23246)
inactive: [1] -0.029 | [2] 0.012 | [3] -0.018 | [4] -0.004 | [5] 0.018 | [6] 0.037 | [7] 0.042 | [8] -0.009 | [9] 0.005 | [10] 0.009

SERAC1 (UniProt Q96JX3)
inactive: [1] 0.085 | [2] -0.133 | [3] -0.152 | [4] -0.029 | [5] 0.052 | [7] 0.033 | [10] -0.023

SGTB (UniProt Q96EQ0)
inactive: [1] 0.057 | [2] 0.012 | [3] -0.008 | [4] -0.023 | [5] 0.012 | [6] -0.012 | [7] -0.013 | [8] -0.056 | [9] 0.02 | [10] 0.02

SERF2 (UniProt P84101)
inactive: [1] -0.098 | [2] 0.11 | [3] 0.045 | [4] -0.021 | [5] 0.062 | [6] -0.096 | [7] -0.085 | [8] -0.001 | [9] 0.227 | [10] -0.041

SIMC1 (UniProt Q8NDZ2)
inactive: [1] -0.065 | [2] 0.008 | [4] -0.009 | [6] -0.06 | [7] -0.054 | [8] -0.017

SF3B6 (UniProt Q9Y3B4)
inactive: [1] 0.045 | [2] 0.013 | [3] -0.036 | [4] -0.028 | [5] -0.038 | [6] 0.016 | [7] 0.021 | [8] 0 | [9] -0.054 | [10] -0.03

SLC15A4 (UniProt Q8N697)
inactive: [3] 0.052 | [5] -0.095 | [6] -0.164 | [8] -0.002 | [9] 0.045 | [10] 0

SLC11A1, A0A0A0MTL3
inactive: [1] -0.408 | [2] 0.122 | [4] -0.216 | [7] 0.154 | [9] -0.076

SLC10A4 (UniProt Q96EP9)
inactive: [3] -0.057 | [5] -0.104 | [9] 0.088 | [10] -0.056
